Among all 340,000 compounds or so, about 170 (0.05%) were called active. This list was built around the results that the source calls inconclusive (neither active nor inactive); the mix of calls is not that of the screen. Calls come from the whole dose curve; as a rule, active = well fitted inhibition curve with a large enough effect in the signal ratio, with a control signal flat (not every such curve was filed as active); inconclusive = small, poorly fitted or top-dose-only effect, or effect the other way, or a change in a side signal; inactive = flat fitted curve, though single readings scatter; the % refers to the signal ratio. Potencies of inconclusive entries are doubtful fits and often do not repeat.
Assay: qHTS Assay to Find Inhibitors of Chronic Active B-Cell Receptor Signaling;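 for activity change, negative = inhibition: plate controls were basal doxycycline-induced cells for no effect and cells given 10 µM MG132 for full effect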
Details: ABC-DLBCL IkBa-CBG/CBR reporter, luminescence ratio (green luciferase fused to IkBa over red control in TMD8 lymphoma cells), 4 h; activity change, negative = inhibition: at 46.1 µM (top of the series)
Outline: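 Doxycycline induced both beetle luciferases in TMD8 lymphoma cells; IKK-driven degradation limits the IkappaBalpha-fused green signal, while red luminescence normalises for cell number and nonspecific effects. Compounds tested up to 46 uM, 4 hrs.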
For `CC(OC(=O)CNC(=O)c1ccc(Cl)c([N+](=O)[O-])c1)C(=O)NC1CCCCC1C` (centres undefined), the activity change, negative = inhibition was inconclusive: 8.33%. For `COc1ccc(C(=O)N2N=C(c3cccs3)CC2c2ccccc2O)cc1` (centres undefined), the activity change, negative = inhibition was inconclusive: 5.51%. With `CC(Oc1ccc(Cl)cc1)C(=O)N/N=C/c1ccsc1` (centres undefined) the Potency was inconclusive: 18.4 µM [falling, single point]. For `CC(=O)NCCNc1nc2c(-c3cccc(C(F)(F)F)c3)nnn2c2ccccc12`, the activity change, negative = inhibition was inconclusive: 5.6%. With `COc1ccc([C@H]2CC(=O)C=C(c3c(OC)cccc3OC)C2)cc1` the activity change, negative = inhibition was “inactive”. With `N#Cc1c(C(F)(F)F)cc(-c2ccc(Cl)cc2)[nH]c1=O` the activity change, negative = inhibition was inconclusive: -29.4%. With `CCOC(=O)NC1(C(F)(F)F)C(=O)NC(C)=C1C#N` (centres undefined) the activity change, negative = inhibition was inconclusive: -5.49%. With `COc1cc(/C=N/Nc2cc(C)nc(NS(=O)(=O)c3ccccc3)n2)ccc1O` the activity change, negative = inhibition was inconclusive: -0.941%. For `COc1ccc(C(=O)Nc2ccc(N3CCCC3)cc2)cc1`, the Potency was inconclusive: 0.58 µM [falling, partial curve, poor fit]. For `COc1cc(/C=N/Nc2nc(Nc3ccccc3)nc(N3CCOCC3)n2)ccc1OC(=O)c1ccco1`, the Potency was inconclusive: 22.4 µM [falling, partial curve]. In the case of `Cc1ccc2nc3c(cc(C(=O)NCCc4ccccc4)c(=N)n3CCN3CCOCC3)c(=O)n2c1`, the activity change, negative = inhibition is reported as “inactive”. In the case of `COc1cc(OC)c(OC)cc1CNCc1ccc2c(c1)OCO2`, the activity change, negative = inhibition is reported as “inactive”. With `O=C(O)/C(=N/NC(=O)c1ccc(Cl)cc1)c1ccccc1` the activity change, negative = inhibition was inconclusive: 210%. For `CCOC(=O)NC(=O)/C(C=Nc1ccc(Cl)c(Cl)c1Cl)=C(\C)O`, the activity change, negative = inhibition was inconclusive: 5.75%. With `CCCCc1cc(=O)oc2cc(OCC(=O)NCCN3CCOCC3)c(Cl)cc12` the activity change, negative = inhibition was “inactive”. In the case of `Cc1ccc(/C=N/OC(=O)c2nn(C)cc2Cl)cc1`, the Potency is reported as inconclusive: 14.1 µM [falling, single point]. In the case of `Cc1ccc(Oc2nc3ccccc3n3c(C)nnc23)c(C)c1`, the activity change, negative = inhibition is reported as inconclusive: 11.9%. For `O=C(O)c1ccccc1OCc1nc2ccccc2s1`, the activity change, negative = inhibition was inconclusive: -11.4%. With `CCOc1cccc(/C=N/NC(=S)Nc2cc(S(=O)(=O)N3CCOCC3)ccc2N2CCOCC2)c1O` the Potency was inconclusive: 20.6 µM [falling, single point]. With `COc1ccc(/C=C/C(=O)O)cc1S(=O)(=O)N1CCc2ccccc2C1` the activity change, negative = inhibition was inconclusive: 8.78%. In the case of `CC1=C(C(=O)OCc2ccccc2)C(c2cccnc2)n2nnnc2N1` (centres undefined), the activity change, negative = inhibition is reported as “inactive”. With `Cn1nc(C(=O)Nc2ccc(Br)cc2)cc1C(=O)Nc1ccc(Br)cc1` the activity change, negative = inhibition was inconclusive: 2.37%. For `COc1cccc(/C=C/C(=O)OCC(=O)c2cc(C)n(CC3CCCO3)c2C)c1OC` (centres undefined), the activity change, negative = inhibition was inconclusive: 0.201%. In the case of `CC(NC(=O)c1cccnc1)C(c1cccs1)N1CCN(c2ccccc2F)CC1` (centres undefined), the activity change, negative = inhibition is reported as “inactive”. In the case of `CCCc1ccc(C(=O)NNc2cccc(C)c2)cc1`, the activity change, negative = inhibition is reported as inconclusive: -19.1%. For `O=C(OCC(=O)N1CCc2ccccc21)[C@@H]1CC(O)CN1S(=O)(=O)c1ccc(Cl)cc1` (some centres undefined), the activity change, negative = inhibition was inconclusive: 0.758%. For `COc1cccc(OCc2cc(C3Nc4ccccc4C(=O)N3Cc3ccco3)ccc2OC)c1` (centres undefined), the Potency was inconclusive: 5.17 µM [falling, single point]. With `COc1cccc(CN2CC(C(=O)N(C)Cc3ccc(C)cc3)CCC2=O)c1` (centres undefined) the activity change, negative = inhibition was “inactive”. With `CNS(=O)(=O)c1ccc(NC(=O)c2cncc(Br)c2)cc1` the activity change, negative = inhibition was inconclusive: 2.71%. In the case of `COc1cccc(-n2cc(CNCc3cn(C)nc3-c3ccccc3F)cn2)c1`, the Potency is reported as inconclusive: 2 µM [rising, full curve]. With `COCCn1c(=NC(=O)CSCC(=O)Nc2cc(C)on2)sc2cc(C(=O)OC)ccc21` the activity change, negative = inhibition was inconclusive: 0.86%. For `CC(=O)c1cccc(NC(=O)c2cc(C(C)C)on2)c1`, the Potency was inconclusive: 35.5 µM [falling, single point]. With `COc1cccc(N2CCN(CC(=O)Nc3nnc(-c4ccccc4)s3)CC2)c1` the activity change, negative = inhibition was inconclusive: 7.2%. In the case of `O=C(Cc1ccccc1)NC(=S)Nc1ccc(OC(F)F)cc1`, the activity change, negative = inhibition is reported as “inactive”. In the case of `Cc1ccccc1C(=O)c1cccn1CC(=O)N1CCCCCC1`, the activity change, negative = inhibition is reported as “inactive”. With `CC(C)CNC(=O)c1cccc(NC(=O)C2CCCO2)c1` (centres undefined) the activity change, negative = inhibition was inconclusive: 9.01%. For `CCn1c(SC(C)C(=O)NCC2CCCO2)nc2ccccc21` (centres undefined), the activity change, negative = inhibition was inconclusive: 7.02%. In the case of `CCN=C1NN=C(c2ccc(C)cc2)CS1`, the activity change, negative = inhibition is reported as inconclusive: -8.09%. With `COc1ccccc1-n1c(CNC(=O)c2ccco2)n[nH]c1=S` the activity change, negative = inhibition was inconclusive: -21.8%. With `COc1ccc(-c2nc(SCC(=O)NCc3ccco3)c(-c3ccccc3)[nH]2)cc1OC` the activity change, negative = inhibition was inconclusive: 7.97%. With `CCOc1ccc(NS(=O)(=O)c2ccc3[nH]cc(C(=O)NCCc4ccccc4)c(=O)c3c2)cc1` the activity change, negative = inhibition was “inactive”. In the case of `COc1ccc(CN(CCCN2CCOCC2)C(=O)Nc2ccccc2)cc1OC`, the activity change, negative = inhibition is reported as inconclusive: 1.01%. In the case of `N/C(=N\OC(=O)c1ccccc1Br)c1ccc([N+](=O)[O-])cc1`, the activity change, negative = inhibition is reported as inconclusive: 6.8%. With `C[N+]1(CC2COC3(CCCCC3)O2)CCCCC1` (centres undefined) the activity change, negative = inhibition was inconclusive: -3.03%. In the case of `CCc1ccc(Nc2cc(C(=O)NCCCN3CCOCC3)c3ccccc3n2)cc1`, the Potency is reported as inconclusive: 1.3 µM [activator, full curve]. In the case of `Cc1occc1C(=O)Nc1ccc2ccccc2c1`, the Potency is reported as inconclusive: 22.4 µM [falling, single point]. With `O=C(CS(=O)(=O)c1ccccc1)Nc1ccc(Cl)cn1` the activity change, negative = inhibition was “inactive”. For `CCOc1ccccc1C(=O)NC(C(=O)Nc1ccccc1N1CCOCC1)C(C)C` (centres undefined), the Potency was inconclusive: 0.316 µM [falling, full curve, poor fit]. For `Cc1ccc(S(=O)(=O)N2CCOCC2)cc1C(=O)Nc1ccc2c(c1)OCCO2`, the activity change, negative = inhibition was inconclusive: -15.8%. For `CCOc1ccc(OCC)c(NC(=O)C2CCCN(S(=O)(=O)c3cnc[nH]3)C2)c1` (centres undefined), the activity change, negative = inhibition was inconclusive: 8.44%. With `CCOc1ccc(NC(=O)Nc2nc3ccc(S(C)(=O)=O)cc3s2)cc1` the activity change, negative = inhibition was inconclusive: 0.173%. For `COc1cc(NC(=O)c2onc(C)c2Cl)c(OC)cc1Cl`, the activity change, negative = inhibition was inconclusive: 3.78%. In the case of `CCN(c1ccccc1)S(=O)(=O)c1ccc(C(=O)Nc2cc(C)ccn2)cc1`, the activity change, negative = inhibition is reported as “inactive”. In the case of `Cc1c(Cl)cccc1NC(=O)c1cc(-c2ccccc2O)n[nH]1`, the activity change, negative = inhibition is reported as inconclusive: 225%. With `COc1ccc(NC(=O)c2ccc(Br)o2)cc1` the activity change, negative = inhibition was “inactive”. In the case of `CCCC(C)C(=O)Nc1ccc(Cl)cn1` (centres undefined), the activity change, negative = inhibition is reported as “inactive”. With `CC1CCCCC1NC(=O)C1CCC(CNS(=O)(=O)c2ccc(F)cc2)CC1` (centres undefined) the activity change, negative = inhibition was inconclusive: -0.0518%. In the case of `CCOC(=O)c1c(NC(=O)CSc2nnc(CN3CCOCC3)n2C)sc2c1CCCC2`, the activity change, negative = inhibition is reported as inconclusive: 8.94%. For `COc1ccccc1NC(=O)Nc1ccc(F)c(F)c1`, the activity change, negative = inhibition was inconclusive: 0.142%. In the case of `Cc1ccc(C(=O)N2C(=O)C(c3ccccc3)Oc3ccccc32)cc1` (centres undefined), the activity change, negative = inhibition is reported as inconclusive: -1.13%. In the case of `Cc1cc2[nH]c3ccccc3c2c(C)n1`, the activity change, negative = inhibition is reported as inconclusive: 1.63%. With `CN1CCN(c2ncnc3c2[nH]c2ccc(F)cc23)CC1` the Potency was inconclusive: 7.31 µM [rising, partial curve, poor fit]. For `Cc1c(N/N=C(\C#N)C(=O)c2ccc(Cl)cc2)c(=O)n(-c2ccccc2)n1C`, the Potency was inconclusive: 8.2 µM [falling, partial curve, poor fit]. For `CC(C)c1ccc(OCC(=O)N2CCc3ccccc3C2)cc1`, the activity change, negative = inhibition was inconclusive: 19.6%. With `CCc1nnc(NC(=O)CSc2ncc(-c3ccccc3)n2CC)s1` the activity change, negative = inhibition was inconclusive: -18.9%. With `COC(=O)c1sc2ncccc2c1OCc1ccccc1Cl` the activity change, negative = inhibition was inconclusive: 4.14%. In the case of `CCOC(=O)CSc1nc2ccccc2n2c(C)nnc12`, the activity change, negative = inhibition is reported as “inactive”. In the case of `O=C1C(=O)N(CC2CCCO2)C(c2ccco2)/C1=C(/O)c1ccc(F)cc1` (centres undefined), the activity change, negative = inhibition is reported as inconclusive: 4.4%. With `COc1ccc2cc3cc(C(=O)NC4CC4)sc3nc2c1` the activity change, negative = inhibition was “inactive”. For `N#Cc1ccc(/C=N/NC(=O)c2ccccc2F)cc1`, the Potency was inconclusive: 4.61 µM [falling, partial curve]. In the case of `CCOc1cc(-c2sc(Nc3ccccc3)n[n+]2-c2ccc(F)cc2)ccc1OC`, the activity change, negative = inhibition is reported as “inactive”. With `O=C(COC(=O)c1ccc(Cl)nc1)NCCc1ccccc1` the activity change, negative = inhibition was inconclusive: 6.27%. For `O=C(O)CCc1nc(-c2ccccc2Cl)no1`, the Potency was inconclusive: 5.62 µM [rising, full curve, poor fit]. In the case of `CN1C(=O)c2cccc3c(S(=O)(=O)N(C)C)ccc1c23`, the activity change, negative = inhibition is reported as inconclusive: -19.3%. For `CNc1c(NS(=O)(=O)c2cc(Cl)ccc2OC)c(=O)oc2ccccc12`, the Potency was inconclusive: 17.8 µM [falling, partial curve, poor fit]. For `COc1ccc2cc(C(c3nnnn3CCc3ccccc3)N3CCCC(C)C3)c(=O)[nH]c2c1` (centres undefined), the activity change, negative = inhibition was inconclusive: -10.9%. In the case of `C/C(=C\c1ccccc1)C(=O)Nc1cc(C)on1`, the activity change, negative = inhibition is reported as inconclusive: -0.455%. With `O=C(CCCOc1ccc(Cl)cc1Cl)Nc1ncccn1` the activity change, negative = inhibition was inconclusive: 1.27%. With `O=C(Nc1ccccc1N1CCN(C(=O)c2ccc(Cl)cc2)CC1)c1ccc([N+](=O)[O-])o1` the activity change, negative = inhibition was inconclusive: 9.2%. For `O=C(Nc1ccc(Cl)cc1C(F)(F)F)c1cc(S(=O)(=O)NCc2ccccc2)ccc1F`, the activity change, negative = inhibition was “inactive”. With `CC(=O)N(CCC(c1ccco1)C(C)C)Cc1ccc(Cl)cc1` (centres undefined) the activity change, negative = inhibition was inconclusive: 13%. For `Cn1c(=O)c2ncn(CC(=O)Nc3cccc(-c4nc5ccccc5s4)c3)c2n(C)c1=O`, the activity change, negative = inhibition was inconclusive: -2.91%. For `Cc1cc(C(=O)CSc2nnc(-c3cccs3)n2Cc2ccccc2)c(C)n1C`, the activity change, negative = inhibition was inconclusive: -1.38%. In the case of `O=C1NC(=O)/C(=C\c2ccc(OCc3cccc(C(=O)O)c3)c(Cl)c2)N1`, the Potency is reported as inconclusive: 35.5 µM [rising, single point].

From PubChem BioAssay AID493014 (National Center for Advancing Translational Sciences (NCATS), 2011)
Potency is the fitted concentration of half-maximal effect.
